Test results reported in PubChem BioAssay AID1347426 (Functional Genomics Laboratory (NCATS/FGL), 2020).
In all, about 31,000 sequences went through this assay and about 1,400 (4.5%) were called active.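 Rule for the calls: active = median seed-adjusted z-score above 1 or below -1; inactive = the rest.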 This is one part of the list.

test: Novel Modifiers of Survival Motor Neuron (SMN) Protein: Gene Identification via Genome-wide siRNA Screen; settings: HEK293T SMN2-luciferase reporter, siRNA knockdown, 72 h; actives lie on both sides;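 note: luminescence tracks full-length SMN protein made from the SMN2 reporter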
Outline: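 siRNA screen, 10418 genes ×3 siRNAs; 1 pmol/well, lipid reverse transfection into HEK293T SMN2-luc reporter line. 72 h, 37 °C, 5% CO2; ONE-Glo readout. Data: neg-ctrl normalized, log10, MAD; hit = MAD >1.0 or < -1.0.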

Row | Sequence | median seed-adjusted z-score
1 | GACCUUAGCUUAUCUGGGATT against TUBB4 | inactive: 0
2 | CCCAUGUACUGCUUCAUCUTT against MC1R | inactive: -0.64
3 | GAUAAGCGAUGUCAACAUATT against SYCP1 | inactive: -0.0197
4 | GCUAAUCAAUUGAUGCUUUTT against SNUPN | inactive: -0.199
5 | GUUCCGAGUUUGUUAUACATT against ZNF19 | inactive: 0
6 | CAUCAGCCCUAUCAACUUATT against SYNPO2L | inactive: -0.47
7 | GGAAUAUGCAAGAUUACCATT against MYST4 | inactive: 0.138
8 | GAAGUUACCUCAUCCUAUUTT against FGD6 | inactive: 0.536
9 | GGCAAGAAGUACAACUGGATT against GFOD1 | inactive: 0.923
10 | CGCAGGUUCUACCAGAUGATT against HS3ST6 | inactive: 0
11 | GAACAUCGUGAACUACCUATT against ACTL8 | inactive: 0
12 | GAUGCUAUAUUUCCGCAUATT against TYK2 | inactive: -0.549
13 | CGAAAGACCCUGACCUUCATT against BSPRY | inactive: -0.399
14 | GGGAGAACCAGGGAAAGGATT against COL13A1 | inactive: -0.112
15 | AUCCCUACCUGAACCUACATT against RAVER1 | inactive: -0.0873
16 | AGAUCAAUGGAGUAGCAGATT against TRMT12 | inactive: 0.352
17 | GCUUUGAUCUGGAGUCAUATT against ZMIZ1 | inactive: -0.382
18 | GUGUCUUACUUUAUAGAAATT against ASCL1 | inactive: 0.132
19 | GAUCCACCUGAGACAGAAATT against EGR2 | inactive: -0.37
20 | CGAUGGACCGAUAACAAGATT against EFCAB6 | inactive: 0.206
21 | GCCUUUACGUGGUGUCUAATT against CPT1A | inactive: 0.129
22 | GAACCGAUCUUAUAGGUUATT against DHX16 | inactive: 0.102
23 | GGGAAGAGGUAUAAACAAATT against ADCYAP1 | inactive: 0.229

Row | Sequence | median seed-adjusted z-score
24 | GAUACCUCAUAAAUAGCUATT against B3GNT5 | inactive: -0.452
25 | GGAUGCACUUCUAAACUCATT against AKR1D1 | inactive: 0.211
26 | GGUGUCUACUUGAGAAACATT against LSS | inactive: -0.302
27 | GUACCAAUAUGAACGGUAUTT against IRX6 | inactive: -0.0329
28 | CCUCGAUUCCAUUAUCAUUTT against RECQL4 | inactive: 0.475
29 | GGAUGGGUCCAUUAUAUGATT against CKS1B | inactive: 0.00314
30 | UCCAGUUUCUUUAUCCUAATT against ATP5F1 | inactive: -0.323
31 | CCUACAAGCUGGGUGAGCATT against MFSD3 | inactive: -0.0706
32 | GCACUACCUUCAUAGAAAUTT against PIGH | inactive: -0.327
33 | CCAUCUACAUGAUCAACCUTT against GPR55 | inactive: -0.114
34 | GUACAUUGACAGAAUUGAUTT against UBTF | inactive: 0.942
35 | CCUAAAUGGUAGCUCUAAATT against RANBP9 | inactive: -0.467
36 | GACAGACAAUAAUCGCAUUTT against CCT3 | inactive: -0.416
37 | AGAUGGUGACUAUAAGUCUTT against ALX3 | inactive: -0.0707
38 | ACGCAGACAUGUUCUGGAATT against TRPM5 | inactive: -0.0565
39 | CGGAUUGUCUAUUGCAUCATT against CALCRL | inactive: 0.28
40 | GUUGAGAGCUCAAAACUAATT against ZFP42 | inactive: -0.537
41 | AAAGAAUCCGGUAUAAAAATT against PBX4 | inactive: -0.855
42 | CAUGCUCGUGGGUAACAAATT against RAB25 | inactive: -0.04
43 | CAGUGUUAGUCAUAUCGUATT against DHX36 | inactive: 0.165
44 | AGAGCAAAACAGUCCGAUATT against PCDH8 | active: -1.03
45 | CACCUGCGAGUGUUCCAAUTT against CSTB | active: 1.08
46 | GGAGUAAUAAAAUCAAGUUTT against GTF2I | inactive: 0.379

Row | Sequence | median seed-adjusted z-score
47 | GACUACUUACGGUUCAAGATT against VAMP7 | inactive: -0.00527
48 | CAAUGAACAUGACUAUGCATT against TTC35 | inactive: -0.0898
49 | GGAGCGAUGCCUUAGGAUATT against NSUN2 | inactive: -0.707
50 | GAUCCUCAUGAAAAACGAATT against HOXC11 | inactive: -0.188
51 | UCAUGUAUGUGGGAGCCAATT against SNCG | inactive: -0.169
52 | CAAUCACGCGGACCCAGAATT against PSMB4 | inactive: -0.16
53 | AAGACAAGCUGGUGCGCAATT against ZBTB7B | inactive: -0.242
54 | GGAAUUUGAGAACCCUGAATT against LMTK3 | inactive: 0
55 | GCACCUUCGUCCUCAACUUTT against PROC | inactive: -0.228
56 | CAUGAUCGAUUUCCAAUUATT against DNAH8 | inactive: 0
57 | GGAUAAAGACUAUCCGAGATT against MMP13 | inactive: 0.265
58 | GGAUGGUUGUGAACAUUGATT against KRT32 | inactive: -0.000598
59 | AACCCUUUGUGGAACACCATT against PSMB4 | inactive: -0.16
60 | GGACUUCUCUAUAUAGCUATT against ZMYND12 | inactive: 0.0551
61 | CAGUCUAUGAGCUUACAAATT against SMAD1 | inactive: -0.0282
62 | GCGUCAACCCUUUCUUGUATT against CCR7 | inactive: 0.244
63 | CAUCAACACCUUCCACCAATT against S100A9 | inactive: -0.0953
64 | GCAGCUGUAUAAGUUACUATT against NFKB1 | inactive: 0.31
65 | GAGGAAUUCAUUAAUGAUATT against ASCC1 | inactive: -0.00853
66 | AAUUCACCGUGAGCCUGAATT against CENTB1 | inactive: -0.239
67 | AGCCCUCCCUAUACCCUUATT against ACCN3 | inactive: -0.114
68 | CAGCGGCUACAUAAACUCATT against COL17A1 | inactive: 0.252
69 | GGGACGAAGUCACAAGUCATT against CLIP1 | inactive: 0.853

Shown as comma-separated lines: entries from further up.
Row,Sequence,median seed-adjusted z-score
60,GGACUUCUCUAUAUAGCUATT against ZMYND12,inactive: 0.0551
61,CAGUCUAUGAGCUUACAAATT against SMAD1,inactive: -0.0282
62,GCGUCAACCCUUUCUUGUATT against CCR7,inactive: 0.244
